The values below come from PMC9377071.

These are yes or no findings as the source states them, for the method shown. In cells and extracts the contact can be indirect. Some results given as binding are weak or reduced against the parent protein; the word gives no strength.

Assay [1] has as its target T1, RIPK1 (mouse (endogenous in HT22)) (UniProt Q60855).
T1 sequence: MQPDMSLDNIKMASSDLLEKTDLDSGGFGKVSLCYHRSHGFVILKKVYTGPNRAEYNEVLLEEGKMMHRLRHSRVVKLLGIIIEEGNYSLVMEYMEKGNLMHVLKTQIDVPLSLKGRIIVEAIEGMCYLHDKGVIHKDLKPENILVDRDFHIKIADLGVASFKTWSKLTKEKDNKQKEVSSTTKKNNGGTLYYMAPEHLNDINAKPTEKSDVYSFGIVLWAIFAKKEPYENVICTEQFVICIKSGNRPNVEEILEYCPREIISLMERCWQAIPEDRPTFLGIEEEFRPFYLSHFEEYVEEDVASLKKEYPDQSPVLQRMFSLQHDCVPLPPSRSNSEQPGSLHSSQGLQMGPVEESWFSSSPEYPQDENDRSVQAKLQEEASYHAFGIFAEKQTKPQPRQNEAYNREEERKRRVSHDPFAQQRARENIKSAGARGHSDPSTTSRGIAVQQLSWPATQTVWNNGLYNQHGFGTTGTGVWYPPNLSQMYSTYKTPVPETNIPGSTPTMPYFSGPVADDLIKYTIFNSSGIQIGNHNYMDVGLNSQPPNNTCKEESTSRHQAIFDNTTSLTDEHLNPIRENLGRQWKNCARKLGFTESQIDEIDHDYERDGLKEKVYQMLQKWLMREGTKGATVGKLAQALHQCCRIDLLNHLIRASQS
Description: co-IP; HT22 cells transfected with vector or TauP301S for 48 h; lysed in NP-40 buffer; lysate incubated overnight with RIPK1 antibody, then Protein G-agarose 3 h; beads washed six times; immunoblot.

The target in assay [2] is T2, RIPK1 (mouse (endogenous in HT22)), Q60855.
T2 chain: T1 sequence
The description is as above. The settings on record: remark: other sources report otherwise.

B1: mixed lineage kinase domain-like protein (protein, UniProt Q9D2Y4 1-472)
chain: MDKLGQIIKLGQLIYEQCEKMKYCRKQCQRLGNRVHGLLQPLQRLQAQGKKNLPDDITAALGRFDEVLKEANQQIEKFSKKSHIWKFVSVGNDKILFHEVNEKLRDVWEELLLLLQVYHWNTVSDVSQPASWQQEDRQDAEEDGNENMKVILMQLQISVEEINKTLKQCSLKPTQEIPQDLQIKEIPKEHLGPPWTKLKTSKMSTIYRGEYHRSPVTIKVFNNPQAESVGIVRFTFNDEIKTMKKFDSPNILRIFGICIDQTVKPPEFSIVMEYCELGTLRELLDREKDLTMSVRSLLVLRAARGLYRLHHSETLHRNISSSSFLVAGGYQVKLAGFELSKTQNSISRTAKSTKAERSSSTIYVSPERLKNPFCLYDIKAEIYSFGIVLWEIATGKIPFEGCDSKKIRELVAEDKKQEPVGQDCPELLREIINECRAHEPSQRPSVDGRSLSGRERILERLSAVEESTDKKV
Take B1: the binding result in assay [1] is “binds”.

B2: RIPK3, Q9QZL0 1-486 (protein)
chain: MSSVKLWPTGASAVPLVSREELKKLEFVGKGGFGVVFRAHHRTWNHDVAVKIVNSKKISWEVKAMVNLRNENVLLLLGVTEDLQWDFVSGQALVTRFMENGSLAGLLQPECPRPWPLLCRLLQEVVLGMCYLHSLNPPLLHRDLKPSNILLDPELHAKLADFGLSTFQGGSQSGSGSGSGSRDSGGTLAYLDPELLFDVNLKASKASDVYSFGILVWAVLAGREAELVDKTSLIRETVCDRQSRPPLTELPPGSPETPGLEKLKELMIHCWGSQSENRPSFQDCEPKTNEVYNLVKDKVDAAVSEVKHYLSQHRSSGRNLSAREPSQRGTEMDCPRETMVSKMLDRLHLEEPSGPVPGKCPERQAQDTSVGPATPARTSSDPVAGTPQIPHTLPFRGTTPGPVFTETPGPHPQRNQGDGRHGTPWYPWTPPNPMTGPPALVFNNCSEVQIGNYNSLVAPPRTTASSSAKYDQAQFGRGRGWQPFHK
As to B2, in assay [2], the binding entry is “binds”.
